The values below come from PubChem BioAssay AID662 (National Center for Advancing Translational Sciences (NCATS), 2007).

Each structure is given as a SMILES string. The list shows a part of the results. These are further read-outs of the screen, such as a control signal, another cell line or another target. No call is given for them. Compounds called inactive in the main read-out are mostly missing here. Potencies come from curve fits of mixed quality, noted in brackets.

This test can be described thus: Cell signaling CRE-BLA (Fsk stim). The note with it: CHO CRE-bla reporter (cAMP response element driving beta-lactamase), forskolin EC10, beta-lactamase ratio; measured here: 460 nm blue channel. Put shortly:
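Using CellSensor CRE-bla CHO cells in Opti-MEM with 0.5% dialyzed FBS, compounds were titrated with EC10 NKH 477 for 3 h at 37 °C. CCF4 ratio (460/530 nm) gave %Activity; AC50 derived.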
Take `COc1ccc(Nc2cc(C)nc(N3CCOCC3)n2)cc1`: the concentration at half-maximal activity (AC50) (commonly the midpoint of the concentration-response curve, whichever way the signal moves) was 12.6 µM [rising, single point].
Next, `O=C1NC(=O)C(CC(=O)N(c2ccccc2)C2(C(=O)NC3CCCC3)CCCCC2)N1` (stereo not drawn): 0.00398 µM [falling, full curve, poor fit]; `O=C(C1CCN(S(=O)(=O)c2ccc3ccccc3c2)CC1)N1CCN(c2ncccn2)CC1`: 5.01 µM [falling, single point]; `NC(=O)CN1CCCN(S(=O)(=O)c2ccc(Br)cc2)CC1`: 25.1 µM [rising, single point].
Next, `COC(=O)C1=CN(C)C=C(C(=O)OC)C1c1ccccc1Cl`: 6.31 µM [rising, partial curve]; `CCOC(=O)C1=C(N)n2c(s/c(=C\c3cccs3)c2=O)=C(C(=O)OCC)C1c1cccs1` (stereo not drawn): 12.6 µM [rising, single point].
On to `CCCOc1ccc(C2/C(=C(\O)c3c(C)[nH]c(C(=O)OC)c3C)C(=O)C(=O)N2CCN(C)C)cc1` (stereo not drawn), for which the AC50 was 25.1 µM [rising, single point].
In the case of `CN1CCN(c2cc(-c3ccc(N(C)C)cc3)ncn2)CC1` it was 10 µM [rising, partial curve]; in that of `O=C(Nc1ccc(Cl)cc1)N(Cc1cccnc1)Cc1ccco1`, 20 µM [rising, single point]; in that of `C(=N\c1nc2ccccc2n1CCN1CCCCC1)/c1ccc2c(c1)OCO2`, 12.6 µM [falling, partial curve].
In the case of `COc1ccc(-n2c(=O)cnc3cnc(N4CCNCC4)nc32)cc1` it was 10 µM [rising, partial curve]; in that of `CCOc1ccc(-n2cc(C(=O)Nc3cccc(C)n3)c3cc(OC)c(OC)cc3c2=O)cc1`, 1.58 µM [rising, partial curve]; in that of `CCOC(=O)c1ccccc1NC(=O)Cn1c(-c2nonc2N)nc2ccccc21`, 2 µM [rising, full curve].
As for `Cc1cc(NC(=O)Nc2cccs2)no1`, the concentration at half-maximal activity (AC50) is 25.1 µM [falling, single point].
Turning to `COC(=O)c1[nH]c2cc(C)ccc2c1NC(=O)CN1CCCc2ccccc21`, the concentration at half-maximal activity (AC50) is 2.51 µM [falling, partial curve, poor fit].
In the case of `COc1ccc(S(=O)(=O)N(Cc2ccc(OC)c(OC)c2)Cc2ccco2)cc1` it was 3.98 µM [rising, partial curve, poor fit].
In the case of `CCOC(=O)C1CCCN(c2nc3ccccc3nc2C(C#N)C(=O)OCC)C1` (stereo not drawn) it was 10 µM [rising, partial curve]; in that of `COc1cccc(C(c2sc3nc(C)nn3c2O)N2CCN(c3ccccc3F)CC2)c1` (stereo not drawn), 12.6 µM [rising, partial curve].
